Source: article PMC7862700
The list shows a part of the results, in another mix than the full data. For some of these results: At the low end of the ranking, values are background and their order means little. The list shows a part of the results. For some of these results: The exact form of the protein is not confirmed.

How the values were obtained:
Test in all cases: DAPPL (digital affinity profiling via proximity ligation, sequencing)
Settings in all cases: 10 mM Tris-HCl pH 7.5, 50 mM NaCl, 1 mM DTT, 4% glycerol, room temperature, 30 min; GST-TFs on glutathione beads, 16-mer random dsDNA library, 0.1% …; high values mean tight binding; double strand, one strand shown; scale: fold enrichment (6-mer frequency, TF over GST control)
[1] = molecular target: T1, GABPA (UniProt Q06546)
T1 sequence: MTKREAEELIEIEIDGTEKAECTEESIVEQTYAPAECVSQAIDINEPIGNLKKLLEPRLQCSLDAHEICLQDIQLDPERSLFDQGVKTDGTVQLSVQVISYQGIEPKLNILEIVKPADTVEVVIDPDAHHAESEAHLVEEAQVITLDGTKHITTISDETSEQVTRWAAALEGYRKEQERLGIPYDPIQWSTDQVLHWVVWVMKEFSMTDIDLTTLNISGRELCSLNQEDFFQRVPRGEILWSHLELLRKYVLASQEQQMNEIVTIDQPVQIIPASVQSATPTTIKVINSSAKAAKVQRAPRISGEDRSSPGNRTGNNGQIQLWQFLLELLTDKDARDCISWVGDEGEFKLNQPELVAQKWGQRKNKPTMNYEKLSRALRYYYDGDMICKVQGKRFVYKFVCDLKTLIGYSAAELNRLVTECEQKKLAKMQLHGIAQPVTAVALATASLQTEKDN

[2] = molecular target: T2, ETS1 (UniProt P14921)
T2 sequence: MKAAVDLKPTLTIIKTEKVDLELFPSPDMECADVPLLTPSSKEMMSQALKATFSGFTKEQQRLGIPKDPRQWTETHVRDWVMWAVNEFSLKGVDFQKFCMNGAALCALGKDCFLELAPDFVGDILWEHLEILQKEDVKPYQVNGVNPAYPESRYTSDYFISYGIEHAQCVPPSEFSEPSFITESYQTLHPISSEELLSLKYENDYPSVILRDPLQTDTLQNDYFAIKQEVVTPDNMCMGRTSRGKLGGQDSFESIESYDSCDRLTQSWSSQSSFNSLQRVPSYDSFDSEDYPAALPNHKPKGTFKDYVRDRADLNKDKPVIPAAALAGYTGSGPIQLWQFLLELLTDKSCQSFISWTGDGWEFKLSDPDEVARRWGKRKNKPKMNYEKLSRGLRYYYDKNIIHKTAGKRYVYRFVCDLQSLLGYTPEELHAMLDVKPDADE

[3] = molecular target: T3, SPDEF (UniProt O95238)
T3 sequence: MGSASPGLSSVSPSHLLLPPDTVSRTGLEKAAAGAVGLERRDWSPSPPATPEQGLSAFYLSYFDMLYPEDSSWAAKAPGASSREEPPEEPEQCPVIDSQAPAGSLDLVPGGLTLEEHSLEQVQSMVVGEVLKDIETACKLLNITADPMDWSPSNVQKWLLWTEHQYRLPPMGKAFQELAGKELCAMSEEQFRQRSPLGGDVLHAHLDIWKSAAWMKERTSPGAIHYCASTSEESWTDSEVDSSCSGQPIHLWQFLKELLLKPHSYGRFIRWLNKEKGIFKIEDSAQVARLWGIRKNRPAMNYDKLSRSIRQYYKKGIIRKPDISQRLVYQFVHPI

Sequence: AGGAAC
- binding signal [1]: 0.94
- binding signal [2]: 1.01
- binding signal [3]: 1.05

Sequence: CATTAG
- binding signal [1]: 0.865
- binding signal [2]: 1.04
- binding signal [3]: 0.988

Sequence: GCAGGT
- binding signal [1]: 0.88
- binding signal [2]: 0.842
- binding signal [3]: 0.913

Sequence: GTTACC
- binding signal [1]: 1.05
- binding signal [2]: 1.08
- binding signal [3]: 1.03

Sequence: GGCTTT
- binding signal [1]: 0.942
- binding signal [2]: 1.02
- binding signal [3]: 1

Sequence: GCAAAG
- binding signal [1]: 0.912
- binding signal [2]: 0.949
- binding signal [3]: 0.923

Sequence: GGATCA
- binding signal [1]: 0.798
- binding signal [2]: 0.783
- binding signal [3]: 0.93

Sequence: TGGATT
- binding signal [1]: 0.966
- binding signal [2]: 0.918
- binding signal [3]: 0.909

Sequence: CATAAA
- binding signal [1]: 0.99
- binding signal [2]: 1.05
- binding signal [3]: 0.944

Sequence: TCATGG
- binding signal [1]: 1.11
- binding signal [2]: 1.1
- binding signal [3]: 0.986

Sequence: GCCCGA
- binding signal [1]: 1.02
- binding signal [2]: 0.995
- binding signal [3]: 0.983

Sequence: GTCTGG
- binding signal [1]: 0.875
- binding signal [2]: 0.824
- binding signal [3]: 0.861

Sequence: CGCTAA
- binding signal [1]: 0.892
- binding signal [2]: 0.945
- binding signal [3]: 0.887

Sequence: ATTCGG
- binding signal [1]: 0.959
- binding signal [2]: 1.01
- binding signal [3]: 0.803

Sequence: GATAGT
- binding signal [1]: 0.889
- binding signal [2]: 0.807
- binding signal [3]: 0.779

Sequence: TTGTGT
- binding signal [1]: 1.15
- binding signal [2]: 1.19
- binding signal [3]: 1.26

Sequence: CGAAGT
- binding signal [1]: 0.942
- binding signal [2]: 1.02
- binding signal [3]: 0.85

Sequence: GTGGTT
- binding signal [1]: 0.893
- binding signal [2]: 0.862
- binding signal [3]: 0.836

Sequence: GCGAAA
- binding signal [1]: 0.859
- binding signal [2]: 0.965
- binding signal [3]: 0.904

Sequence: GACCGC
- binding signal [1]: 1.06
- binding signal [2]: 0.909
- binding signal [3]: 0.898

Sequence: AGCGGC
- binding signal [1]: 0.91
- binding signal [2]: 0.956
- binding signal [3]: 0.876

Sequence: AAATCG
- binding signal [1]: 0.948
- binding signal [2]: 1.06
- binding signal [3]: 0.942

Sequence: AGCAGA
- binding signal [1]: 0.964
- binding signal [2]: 0.891
- binding signal [3]: 0.873

Sequence: TCTTCG
- binding signal [1]: 1.45
- binding signal [2]: 1.52
- binding signal [3]: 1.49

Sequence: CGCGCA
- binding signal [1]: 0.95
- binding signal [2]: 0.996
- binding signal [3]: 0.948

Sequence: TTTCGC
- binding signal [2]: 1.08
- binding signal [3]: 0.998

Sequence: CGTCGC
- binding signal [2]: 1.05
- binding signal [3]: 1.24

Sequence: CTCGAC
- binding signal [2]: 1.49
- binding signal [3]: 1.42

Sequence: TCTGAC
- binding signal [2]: 1.13
- binding signal [3]: 1.14

Sequence: TACAGC
- binding signal [2]: 1.06
- binding signal [3]: 0.996

Sequence: GCACGA
- binding signal [2]: 1.04
- binding signal [3]: 1

Sequence: ATGCGT
- binding signal [2]: 1.04
- binding signal [3]: 1.07

Sequence: CATTCA
- binding signal [2]: 1.16
- binding signal [3]: 0.986

Sequence: GGGTAT
- binding signal [1]: 0.971
- binding signal [2]: 1.03
- binding signal [3]: 0.977

Sequence: CGGCTG
- binding signal [2]: 0.859
- binding signal [3]: 0.97

Sequence: GGTATC
- binding signal [2]: 1.1
- binding signal [3]: 1.33

Sequence: ATCGTT
- binding signal [2]: 1.06
- binding signal [3]: 0.981

Sequence: TGATCC
- binding signal [2]: 1.19
- binding signal [3]: 1.63

Sequence: AAGGAT
- binding signal [2]: 1.14
- binding signal [3]: 1.37

Sequence: CCTGCC
- binding signal [1]: 1.25
- binding signal [2]: 1.32
- binding signal [3]: 1.31

Sequence: AACGCC
- binding signal [2]: 1.11
- binding signal [3]: 0.942

Sequence: AACTGG
- binding signal [2]: 1.31
- binding signal [3]: 1.23

Sequence: CAGCCT
- binding signal [2]: 1.12
- binding signal [3]: 0.988

Sequence: GACATG
- binding signal [1]: 0.989
- binding signal [2]: 0.777
- binding signal [3]: 0.957

Sequence: CATAGT
- binding signal [1]: 0.989
- binding signal [2]: 1.01
- binding signal [3]: 0.935

Sequence: CAGCAC
- binding signal [2]: 1.04
- binding signal [3]: 0.937

Sequence: ATTGTG
- binding signal [1]: 0.979
- binding signal [2]: 1.01
- binding signal [3]: 0.933

Sequence: CTTAAA
- binding signal [2]: 1.23
- binding signal [3]: 1.27

Sequence: TTAGGA
- binding signal [1]: 0.901
- binding signal [2]: 0.952
- binding signal [3]: 0.949

Sequence: CTTTGA
- binding signal [2]: 1.24
- binding signal [3]: 1.1

Sequence: TAGCTG
- binding signal [2]: 1.05
- binding signal [3]: 0.948

Sequence: ATGCCG
- binding signal [2]: 1.1
- binding signal [3]: 1.13

Sequence: GCTAAG
- binding signal [1]: 0.954
- binding signal [2]: 1.01
- binding signal [3]: 1.11

Sequence: GCCTTA
- binding signal [2]: 1.23
- binding signal [3]: 1.12

Sequence: GTCCCA
- binding signal [1]: 1.11
- binding signal [2]: 1.14
- binding signal [3]: 0.989

Sequence: CAGACT
- binding signal [1]: 1.06
- binding signal [2]: 0.929
- binding signal [3]: 0.987

Sequence: AAGGCA
- binding signal [2]: 1.01
- binding signal [3]: 0.897

Sequence: GGTATG
- binding signal [1]: 0.873
- binding signal [2]: 1
- binding signal [3]: 1.02

Sequence: TATCTT
- binding signal [2]: 1.3
- binding signal [3]: 1.32

Sequence: AAGTAG
- binding signal [2]: 1.21
- binding signal [3]: 1.07

Sequence: TCAGCC
- binding signal [1]: 1.06
- binding signal [2]: 1.02
- binding signal [3]: 1.03

Sequence: GATTAA
- binding signal [2]: 0.97
- binding signal [3]: 1.08

Sequence: ACGAGC
- binding signal [2]: 0.966
- binding signal [3]: 0.903

Sequence: TGCGTC
- binding signal [2]: 1.03
- binding signal [3]: 0.98

Sequence: TACCCC
- binding signal [2]: 1.1
- binding signal [3]: 1.02
